Earlier results as cited in patent publication US20150307940A1, “MOLECULAR SIGNATURE OF CUTANEOUS PIGMENTARY SPOTS, ASSOCIATED WITH THE EXTRACELLULAR MATRIX” (L'OREAL, priority 2011, published 2015).
Like-named read-outs stand apart in the source and are kept apart here. At least one structure is not confirmed: it was looked up by name or label, or the drawing left a doubt.

How the values were obtained:
Settings in all cases: cited from earlier work
[1] = target: T1, PLOD2, procollagen-lysine, 2-oxoglutarate 5-dioxygenase 2 (Homo sapiens, UniProt O00469)
T1 sequence (O00469 26-737): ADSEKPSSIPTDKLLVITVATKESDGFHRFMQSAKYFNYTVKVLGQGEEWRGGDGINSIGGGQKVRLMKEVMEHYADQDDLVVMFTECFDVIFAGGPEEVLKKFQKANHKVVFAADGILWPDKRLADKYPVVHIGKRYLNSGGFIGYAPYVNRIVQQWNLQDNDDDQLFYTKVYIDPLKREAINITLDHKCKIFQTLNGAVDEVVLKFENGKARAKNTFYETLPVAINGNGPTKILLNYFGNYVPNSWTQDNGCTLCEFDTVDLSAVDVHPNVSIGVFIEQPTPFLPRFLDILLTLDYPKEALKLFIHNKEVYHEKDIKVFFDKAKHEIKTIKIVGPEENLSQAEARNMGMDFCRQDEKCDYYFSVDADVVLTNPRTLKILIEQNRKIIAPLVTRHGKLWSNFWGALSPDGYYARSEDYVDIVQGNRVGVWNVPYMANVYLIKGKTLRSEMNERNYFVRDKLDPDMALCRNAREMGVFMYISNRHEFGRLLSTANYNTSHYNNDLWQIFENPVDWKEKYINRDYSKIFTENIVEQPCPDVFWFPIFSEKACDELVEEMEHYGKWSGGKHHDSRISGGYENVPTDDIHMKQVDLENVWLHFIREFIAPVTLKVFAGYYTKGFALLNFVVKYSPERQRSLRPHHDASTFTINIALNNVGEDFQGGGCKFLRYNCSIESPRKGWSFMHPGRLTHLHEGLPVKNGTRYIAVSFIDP

[2] = tested on: SMAD7, SMAD family member 7
[3] = tested on: SMAD3, SMAD family member 3
[4] = tested on: COL6A3, collagen, type VI, alpha 3
[5] = tested on: BMP2, bone morphogenetic protein 2

In the case of COc1cc2c(Nc3ccc(Br)cc3F)ncnc2cc1OCC1CCN(C)CC1 [Vandetanib (ZD6474 5), Vandetanib], the “Sense of modulation: PLOD2 exp./activity” value [1] is listed as “Increases exp./” and the “Sense of modulation: PLOD2 exp./activity” value ([1]; listed as vandetanib (ZD64745 5)) is listed as “increases”.

In the case of COc1ccc2cc1Oc1ccc(cc1)C[C@H]1c3cc(c(OC)cc3CCN1C)Oc1c(OC)c(OC)cc3c1[C@H](C2)N(C)CC3 [Tetrandrine], the “Sense of modulation: SMAD7 expression” value [2] is listed as “Increases”.

For CC(C)OC(=O)C(C)(C)Oc1ccc(C(=O)c2ccc(Cl)cc2)cc1 [Fenofibrate], the “Sense of modulation: SMAD3 expression” value [3] is given as “Reduces” and the “Sense of modulation: SMAD3 expression” value ([3]; listed as fenofibrate) is given as “reduces”.

For CCc1ccc(CCOc2ccc(CC3SC(=O)NC3=O)cc2)nc1 (stereo not drawn) [Pioglitazone], the “Sense of modulation: COL6A3 expression” value [4] is listed as “Reduces”, the “Sense of modulation: COL6A3 expression” value ([4]; listed as pioglitazone) is listed as “reduces” and the “Sense of modulation: BMP2 expression” value [5] is listed as “Reduces exp”. For the same compound, the “Sense of modulation: BMP2 expression” value ([5]; listed as pioglitazone) was “reduces”.
